Reference: PubChem BioAssay AID540276 (National Center for Advancing Translational Sciences (NCATS), 2011)
Screen size: about 300,000 compounds; about 5,400 (1.8%) were called active. The inconclusive results got no clear call from the source; some entries with a clear call stand among them for comparison. Calls come from the whole dose curve; tested in HEK293 cells. Potencies of inconclusive entries are doubtful fits and often do not repeat.

Assay: qHTS for inhibitors of binding or entry into cells for Marburg Virus
Conditions: Marburg virus pseudotyped entry inhibition, cell reporter; activity change, negative = inhibition: at 37.8 µM (top of the series) unless noted
% is set by controls: 0 for no effect and ±100 for the full control effect; potency is the fitted concentration of half-maximal effect.

| SMILES | Potency | activity change, negative = inhibition |
| --- | --- | --- |
| O=C(Nc1ccncc1)c1ccc(Cl)c(S(=O)(=O)N2CCCC2)c1 | inconclusive: 11.2 µM [inhibitor, partial curve, poor fit] |  |
| CCOc1ccc(C(=O)COC(=O)Cc2n[nH]c(=O)c3ccccc23)cc1 | inconclusive: 2.82 µM [inhibitor, partial curve, poor fit] |  |
| CCOC(=O)c1cc2c(=O)n3ccccc3nc2n(Cc2ccco2)c1=NC(=O)c1cccnc1 | active: 7.3 µM |  |
| COCCNc1nnc(SCC(=O)Nc2sc3c(c2C(=O)c2ccccc2)CCCC3)s1 | inconclusive: 5.01 µM [inhibitor, full curve, poor fit] |  |
| COCCOC(=O)c1c(C)n(S(=O)(=O)c2ccc(C)cc2)c2ccc(NS(=O)(=O)c3ccc(C)cc3)cc12 | inconclusive: 2.82 µM [inhibitor, partial curve, poor fit] |  |
| Cc1nc(C)c(-c2ccn(S(=O)(=O)c3ccc(Cl)cc3)n2)o1 | inconclusive: 5.62 µM [activator, single point] |  |
| COc1ccccc1C(c1nnnn1C(C)(C)C)N1CCN(Cc2ccncc2)CC1 (configuration not stated) | inconclusive: 22.4 µM [activator, single point] |  |
| Cn1c(NC(=O)C[n+]2cc(-c3ccccc3)n3c2CCC3)cc(=O)n(C)c1=O |  | inactive: 0.791% |
| O=C(NNc1cc(Cl)ccc1Cl)C1CCC1 |  | inactive: -26.2% |
| COCCCNC(=O)c1ccc(NS(C)(=O)=O)cc1 |  | inactive: 10.1% |
| COC(=O)c1nc(NC(=O)C(C)C)n[nH]1 |  | inactive: 5.02% |
| Cc1ccc(CNC(=O)c2ccc3nc(N4CCCCC4)sc3c2)cc1 | inconclusive: 3.55 µM [activator, partial curve, poor fit] |  |
| COc1cccc(C=NNc2nnc(NN=Cc3cccc(OC)c3OC)c3ccccc23)c1OC | inconclusive: 14.1 µM [inhibitor, single point] |  |
| CCCCn1c(NS(=O)(=O)c2ccc(C)cc2)c(C(=O)OCC)c2nc3ccccc3nc21 | inconclusive: 3.16 µM [inhibitor, single point] |  |
| N#C/C(=C/c1ccc(N2CCCCC2)o1)C(=O)NCCc1c[nH]c2ccccc12 | inconclusive: 4.47 µM [inhibitor, full curve] |  |
| COc1ccc(NC(=S)c2ccccc2)cc1 | inconclusive: 1.26 µM [activator, single point] |  |
| Cc1nn(CCCC(=O)Nc2ccc(Br)cc2F)c(C)c1[N+](=O)[O-] | inconclusive: 6.31 µM [inhibitor, full curve, poor fit] |  |
| CN1N=C(C(=O)N2CCc3c([nH]c4ccccc34)C2c2ccccc2Cl)CCC1=O (configuration not stated) |  | inconclusive: 7.39% [activator] [at 46.1 µM] |
| Nc1c(-c2ccccc2)n[nH]c1-c1ccccc1 |  | inactive: -3.83% |
| Cc1ccc(S(=O)(=O)N2CCN(c3ncnc4scc(-c5ccc(F)cc5)c34)CC2)cc1 | inconclusive: 22.4 µM [inhibitor, partial curve, poor fit] |  |
| CCOc1ccc(C(=O)N/N=C/c2ccccc2[N+](=O)[O-])cc1 | active: 11.6 µM |  |

3 compounds from above, sorted by length of the SMILES, rising.

| SMILES | Potency | activity change, negative = inhibition |
| --- | --- | --- |
| COc1ccc(NC(=S)c2ccccc2)cc1 | inconclusive: 1.26 µM [activator, single point] |  |
| COCCCNC(=O)c1ccc(NS(C)(=O)=O)cc1 |  | inactive: 10.1% |
| Cc1nn(CCCC(=O)Nc2ccc(Br)cc2F)c(C)c1[N+](=O)[O-] | inconclusive: 6.31 µM [inhibitor, full curve, poor fit] |  |

The results go on:

| SMILES | Potency | activity change, negative = inhibition |
| --- | --- | --- |
| COc1ccc(OC)c(Cc2nnc(CCC(=O)NC3C4CC5CC(C4)CC3C5)o2)c1 (configuration not stated) |  | inactive: 22.1% [at 46.1 µM] |
| CCOc1cc(C2NN=C(c3ccc(C)cc3)S2)ccc1O (configuration not stated) | inconclusive: 5.62 µM [activator, single point] |  |
| O=c1[nH]c(=S)n(Cc2ccc(F)cc2)c(O)c1C=NCc1cccnc1 |  | inactive: -0.0816% |
| Cc1ccc(C(=O)N/N=C2\CCc3ccccc32)c(C)c1 | inconclusive: 14.1 µM [inhibitor, single point] |  |
| CCOC(=O)c1cccc(N/C=C/C(=O)c2ccc(OC)c(OC)c2)c1 | inconclusive: 35.5 µM [inhibitor, single point] |  |
| CCC1CCCCN1C(=O)CCc1nnc(Cc2cc(OC)ccc2OC)o1 (configuration not stated) | inconclusive: 2.24 µM [activator, partial curve, poor fit] |  |
| CCOC(=O)c1[nH]c2c(c1Cc1ccccc1)C(=O)CC(c1ccc(Cl)cc1)C2 (configuration not stated) | inconclusive: 20 µM [inhibitor, single point] |  |
| Cc1cc(C)c2c(N)c(C(=O)c3ccc(Cl)cc3)sc2n1 | inconclusive: 2.82 µM [activator, partial curve, poor fit] |  |
| N#CC1=C(SCC(=O)c2ccc(Cl)cc2)NC2=C(C(=O)CCC2)C1c1ccco1 (configuration not stated) | inconclusive: 6.31 µM [inhibitor, partial curve] |  |
| Cc1ccc(CC(=O)Nc2ccc(S(=O)(=O)Nc3ncccn3)cc2)cc1 | inconclusive: 35.5 µM [inhibitor, single point] |  |
| CCc1ccc(S(=O)(=O)c2cn(CC(=O)Nc3ccc(C)cc3)c3ccccc3c2=O)cc1 | inconclusive: 22.4 µM [inhibitor, single point] |  |
| O=C(N/N=C/c1c[nH]c2ccccc12)c1ccccc1O | inconclusive: 5.01 µM [activator, partial curve] |  |
| COc1cccc(NC(=O)Nc2ccc(Br)cn2)c1 | inconclusive: 3.16 µM [activator, full curve] |  |
| CSc1nc(C)cc(OCC(=O)n2nc(C)cc2C)n1 | inconclusive: 13 µM [activator, partial curve, poor fit] |  |
| O=C(NNc1ccccn1)c1ccccc1CC[N+](=O)[O-] |  | inactive: 26.4% [at 46.1 µM] |
| Cc1nn(Cc2ccc(F)cc2)c(C)c1NC(=O)c1cc(CC(C)C)on1 | inconclusive: 5.01 µM [inhibitor, single point] |  |
| Cc1ccc(NC(=O)COc2coc(CN3CCc4ccccc4C3)cc2=O)cc1Cl |  | inactive: 13.1% |
| CC(C)Sc1nc2ccccc2n1CC(=O)O | inconclusive: 4.47 µM [activator, single point] |  |
| O=C(CCN1C(=O)C2C3C=CC(C3)C2C1=O)N1CCN(c2cccc(Cl)c2)CC1 (configuration not stated) | inconclusive: 12.6 µM [inhibitor, partial curve, poor fit] |  |
| COc1ccc(C(=O)NNc2ccccc2)cc1 | inconclusive: 8.91 µM [activator, partial curve, poor fit] |  |
| COc1ccc(-c2noc(CN(C(=O)COc3cc(C)c(Br)c(C)c3)C(C)C)n2)cc1 | inconclusive: 35.5 µM [inhibitor, single point] |  |
